According to article PMC10970367:
These are yes or no findings as the source states them, for the method shown. Binding seen in cells or lysates may run through a third protein. Some results given as binding are weak or reduced against the parent protein; the word gives no strength.

Amino acid sequences for entries named in this document (tags omitted). A change or cut given only in a name is not applied to a line headed by its entry. Chains listed by the source or under a name are the forms on record and can include a tag or linker. Residues count along the entry.
UniProt Q13164: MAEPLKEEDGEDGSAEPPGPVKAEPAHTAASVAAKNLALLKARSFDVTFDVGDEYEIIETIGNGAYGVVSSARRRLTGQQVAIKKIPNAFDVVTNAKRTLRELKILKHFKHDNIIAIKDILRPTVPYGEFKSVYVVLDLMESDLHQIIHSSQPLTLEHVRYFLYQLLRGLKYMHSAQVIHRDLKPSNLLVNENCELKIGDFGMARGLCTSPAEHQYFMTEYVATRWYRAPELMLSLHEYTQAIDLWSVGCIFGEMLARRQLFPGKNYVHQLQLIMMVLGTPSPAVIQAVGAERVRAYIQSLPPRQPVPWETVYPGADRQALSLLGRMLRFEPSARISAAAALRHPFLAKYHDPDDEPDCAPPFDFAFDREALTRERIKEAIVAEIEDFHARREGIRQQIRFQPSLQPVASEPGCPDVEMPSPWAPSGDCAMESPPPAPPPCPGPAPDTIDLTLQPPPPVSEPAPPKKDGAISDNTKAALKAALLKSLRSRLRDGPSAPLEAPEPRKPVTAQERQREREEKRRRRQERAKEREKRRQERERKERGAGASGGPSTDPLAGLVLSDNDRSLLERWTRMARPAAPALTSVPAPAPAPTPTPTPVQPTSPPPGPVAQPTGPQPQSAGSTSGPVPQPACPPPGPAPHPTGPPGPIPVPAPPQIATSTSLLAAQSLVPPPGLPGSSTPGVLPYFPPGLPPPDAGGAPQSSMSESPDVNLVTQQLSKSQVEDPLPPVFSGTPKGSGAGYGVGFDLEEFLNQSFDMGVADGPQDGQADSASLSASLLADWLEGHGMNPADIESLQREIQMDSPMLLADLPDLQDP
kidney glutaminase (KGA), isoform of mitochondrial glutaminase GLS (human (endogenous in NP9)) (O94925, residues 55-669): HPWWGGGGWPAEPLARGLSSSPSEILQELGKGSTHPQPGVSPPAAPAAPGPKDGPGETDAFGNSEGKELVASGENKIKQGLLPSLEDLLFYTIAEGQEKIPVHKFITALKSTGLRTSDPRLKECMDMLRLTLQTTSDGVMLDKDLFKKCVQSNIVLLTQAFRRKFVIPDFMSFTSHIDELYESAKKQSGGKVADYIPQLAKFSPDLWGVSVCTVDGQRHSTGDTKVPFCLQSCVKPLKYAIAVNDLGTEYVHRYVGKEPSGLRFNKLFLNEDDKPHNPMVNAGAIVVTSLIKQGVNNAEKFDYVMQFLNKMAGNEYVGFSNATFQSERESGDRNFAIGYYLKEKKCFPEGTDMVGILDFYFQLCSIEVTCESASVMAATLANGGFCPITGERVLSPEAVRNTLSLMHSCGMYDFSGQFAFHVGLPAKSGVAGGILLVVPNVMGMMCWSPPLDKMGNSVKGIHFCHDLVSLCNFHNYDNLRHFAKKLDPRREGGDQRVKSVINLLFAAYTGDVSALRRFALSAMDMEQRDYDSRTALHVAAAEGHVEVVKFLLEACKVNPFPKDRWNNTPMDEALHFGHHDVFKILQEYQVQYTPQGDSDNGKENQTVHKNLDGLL
glutaminase C (GAC), isoform of mitochondrial glutaminase GLS (O94925-3, form named): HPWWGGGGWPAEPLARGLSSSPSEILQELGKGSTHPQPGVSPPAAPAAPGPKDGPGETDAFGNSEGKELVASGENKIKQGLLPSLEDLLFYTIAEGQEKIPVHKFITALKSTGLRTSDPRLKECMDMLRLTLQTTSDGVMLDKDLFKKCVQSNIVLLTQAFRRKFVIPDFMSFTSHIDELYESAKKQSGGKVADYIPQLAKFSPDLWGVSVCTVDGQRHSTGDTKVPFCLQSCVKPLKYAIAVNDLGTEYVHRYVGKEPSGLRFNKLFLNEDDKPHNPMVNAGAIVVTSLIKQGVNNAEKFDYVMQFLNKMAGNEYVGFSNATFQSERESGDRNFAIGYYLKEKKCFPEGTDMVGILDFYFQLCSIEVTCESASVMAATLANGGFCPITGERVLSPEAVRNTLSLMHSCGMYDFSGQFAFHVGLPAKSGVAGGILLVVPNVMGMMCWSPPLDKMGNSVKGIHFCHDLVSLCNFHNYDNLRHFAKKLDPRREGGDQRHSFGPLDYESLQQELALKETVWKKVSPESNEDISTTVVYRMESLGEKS

What was measured:
Assay in all cases: co-IP; whole-cell NP9 lysates immunoprecipitated with anti-ERK5, anti-GAC or anti-KGA/GAC antibodies; SDS-PAGE and Western blotting; lysis buffer 20 mM Tris-HCl pH 7.0, 140 mM NaCl, 50 mM EDTA, 10% glycerol, 1% Nonidet P-40
[1] = target: Extracellular-Signal-Regulated Kinase 5 (ERK5) (human (endogenous in NP9)) (UniProt Q13164)
[2] = target: glutaminase C (GAC), isoform of mitochondrial glutaminase GLS (human (endogenous in NP9)) (UniProt O94925)
[3] = target: kidney glutaminase (KGA), isoform of mitochondrial glutaminase GLS (human (endogenous in NP9)) (UniProt O94925)

| Substance | binding [1] | binding [2] | binding [3] |
| --- | --- | --- | --- |
| kidney glutaminase (KGA), isoform of mitochondrial glutaminase GLS (from UniProt O94925 55-669) (enzyme) | binds |  |  |
| Extracellular-Signal-Regulated Kinase 5 (ERK5) (from UniProt Q13164 1-816) (enzyme) |  | binds | binds |
| glutaminase C (GAC), isoform of mitochondrial glutaminase GLS (from UniProt O94925-3 55-598) (enzyme) | binds |  |  |
